Assay results published in patent publication US20250295113A1, “COMPOSITION AND METHOD FOR CONTROLLING WEEDS” (priority 2022, published 2025).
Some of these results come from one statement about several compounds together.

Test system: blanket crabgrass
Assay: Example 4: blanket crabgrass control trial in Floratam St Augustinegrass
Type: in vivo, blanket crabgrass (Digitaria serotina)
Conditions: time not stated; quinclorac 573 g ai/ha with and without metcamifen 75 g ai/ha
Description: Two applications were made on a 21-day interval.

SMILES: O=C(O)c1c(Cl)ccc2cc(Cl)cnc12 [Quinclorac, 3,7-dichloro-8-quinolinecarboxylic acid]
- blanket crabgrass control: greater than 90%
